Laboratory results taken from paper PMC9112550, “Optimization of the antimicrobial peptide Bac7 by deep mutational scanning” (BMC Biology, 2022).

System: E. coli TOP10
Assay: Deep mutational scanning, site-saturation Bac7_1-23 library, intracellular self-screening with NGS
Assay type: cell-based
Conditions: site-saturation library, 156,779 variants; rank 1 = most active
Description: A focused strategy was pursued to generate diversity at positions 5, 18, 19, and 20 in the Bac7_1-23 peptide. […] Degeneration was introduced by using the QuikChange technique, amplifying the pBAD plasmid containing the Bac7_1-23 gene using a mixture of 20 oligonucleotides (Additional file 1: Table S1) at a final concentration of 0.3 μM and Phusion® High-Fidelity PCR Master Mix in HF buffer. The amplification was performed using 20 cycles of 98°C for 10 s, 60°C for 15 s, and 72°C for 10 s. The PCR product was treated with the enzyme Dpn1 to remove the template plasmid and subsequently purified. The purified product was used to transform 20 μl of CloneCatcher™ Gold DH5G Electrocompetent E. coli (Genlantis, Burlington, USA) cells using electroporation.
To assess the antimicrobial activity of multiple peptides in parallel when expressed intracellularly in E. coli TOP10, previously prepared aliquots containing E. coli plasmid libraries created by either random mutagenesis or site-saturation mutagenesis were used. For both approaches, three aliquots containing approximately 500 million cells each of E. coli TOP10 harboring peptide-encoding DNA sequences on the pBAD plasmid were thawed and added to three 1-l baffled shake flasks containing 100 ml of LB medium + 100 μg ml^−1 carbenicillin. The cultures were grown for roughly 7 h at 37°C.

Sequence | Rank by antimicrobial activity
RRIRYRPPRLPRPRPRPCKSPRP [site-saturation library peptide ID 53741] | 5
RRIRDRPPRLPRPRPRPIKDPRP [site-saturation library peptide ID 5521] | 4
RRIRYRPPRLPRPRPRPQALPRP [site-saturation library peptide ID 54096] | 3
